Assay results published in PubChem BioAssay AID248 (DTP/NCI, 2004).
The list shows only some results of the screen, not a fair sample: it is rich in T/C values a quarter to a half above the control, in often repeated tests (any T/C) and in doses without a T/C. Other doses and runs of a compound stand elsewhere. T/C gives the treated animals as a percentage of the vehicle group. Some entries give survivors of the animals treated and no T/C: the source holds a T/C of zero for them, seemingly a mark for toxic or unscored doses. Some survivor counts are full or nearly so, which does not show that the dose was tolerated: the source hardly ever lists a survival T/C far under the control, and the zero likely stands for such cases as well. Survivors were counted at the toxicity check, usually on the fifth day, unless a day is given; later deaths do not show. Schedule codes are those of the source, taken here to give the interval after Q, in days (D) or hours (H), and the number of doses after X. Some schedules carry Z or #; the key to these is not given. For survival time, the PubChem record calls one and a half times the control and up active, and a quarter to a half above the control has no call in these data; cut-offs in other NCI protocols can differ. Some doses were run more than once; the values are given in rising order.

System: L1210 leukemia ip in BDF1 mice, survival T/C
Experiment: NCI In Vivo Anticancer Drug Screen. Data for tumor model L1210 Leukemia (intraperitoneal) in B6D2F1 (BDF1) mice
Conditions: T/C endpoint: mean survival time, higher T/C = longer survival
[1] = dose: 80.0 mg/kg/injection, schedule: Q01DX001 (ip), vehicle: saline
[2] = dose: 100.0 mg/kg/injection, schedule: Q01DX001 (ip), vehicle: saline
[3] = dose: 100.0 mg/kg/injection, schedule: Q04DX003 (ip), vehicle: saline
[4] = dose: 200.0 mg/kg/injection, schedule: Q04DX003 (ip), vehicle: saline
[5] = dose: 400.0 mg/kg/injection, schedule: Q04DX003 (ip), vehicle: saline
[6] = dose: 300.0 mg/kg/injection, schedule: Q01DX001 (ip), vehicle: saline
[7] = dose: 400.0 mg/kg/injection, schedule: Q04DX003 (ip), vehicle: Klucel (hydroxypropylcellulose) (HPC)
[8] = dose: 400.0 mg/kg/injection, schedule: Q04DX002 (ip), vehicle: Klucel (hydroxypropylcellulose) (HPC)

With `O=[N+]([O-])c1cccc(S(=O)(=O)OCn2ncc3ccc([N+](=O)[O-])cc32)c1` the survivor count [1] was 1 of 4, the survivor count [2] was 0 of 4 and the survivor count (dose: 200.0 mg/kg/injection, schedule: Q01DX001 (ip), vehicle: saline) was 0 of 4. The survivor count (dose: 400.0 mg/kg/injection, schedule: Q01DX001 (ip), vehicle: saline) was 0 of 4.

In the case of `O=C(NC1CCC(NC(=O)N2CC2)CC1)N1CC1` (stereo unspecified), the T/C (dose: 0.25 mg/kg/injection, schedule: Q01DX009 (ip), vehicle: carboxymethylcellulose (CMC)) is reported as 130 % of control, the T/C (dose: 0.44 mg/kg/injection, schedule: Q01DX009 (ip), vehicle: carboxymethylcellulose (CMC)) is reported as 129 % of control and the T/C (dose: 0.5 mg/kg/injection, schedule: Q01DX009 (ip), vehicle: carboxymethylcellulose (CMC)) is reported as 142 % of control. The T/C (dose: 0.66 mg/kg/injection, schedule: Q01DX009 (ip), vehicle: carboxymethylcellulose (CMC)) was 146 % of control, the T/C (dose: 3.0 mg/kg/injection, schedule: Q01DX001 (ip), vehicle: carboxymethylcellulose (CMC)) was 139 and 145 % of control and the survivor count (dose: 3.0 mg/kg/injection, schedule: Q01DX009 (ip), vehicle: carboxymethylcellulose (CMC)) was 6 of 6. The T/C (dose: 4.5 mg/kg/injection, schedule: Q01DX001 (ip), vehicle: carboxymethylcellulose (CMC)) was 138 % of control, the survivor count (dose: 4.5 mg/kg/injection, schedule: Q01DX009 (ip), vehicle: carboxymethylcellulose (CMC)) was 6 of 6 and the survivor count (dose: 6.0 mg/kg/injection, schedule: Q01DX001 (ip), vehicle: carboxymethylcellulose (CMC)) was 4 of 4. The survivor count (dose: 12.0 mg/kg/injection, schedule: Q01DX001 (ip), vehicle: carboxymethylcellulose (CMC)) was 1 of 4, the survivor count (dose: 100.0 mg/kg/injection, schedule: Q01DX001 (ip), vehicle: carboxymethylcellulose (CMC)) was 1 of 4 and the survivor count (dose: 200.0 mg/kg/injection, schedule: Q01DX001 (ip), vehicle: carboxymethylcellulose (CMC)) was 0 of 4. For the same molecule, the survivor count (dose: 400.0 mg/kg/injection, schedule: Q01DX001 (ip), vehicle: carboxymethylcellulose (CMC)) was 0 of 4.

For `O=CC(O)C(O)C(O)C(O)COP(=O)(O)O` (stereo unspecified), the survivor count [3] was 5 of 6, the survivor count [4] was 3 of 6 and the survivor count [5] was 1 of 6.

With `O=C(Nc1cccc(C2=NCCN2)c1)Nc1cccc(C2=NCCN2)c1` the survivor count (dose: 50.0 mg/kg/injection, schedule: Q01DX Z (ip), vehicle: water) was 0 of 6.

`C1=C(N2CCCCC2)C2CCC1C2` (stereo unspecified) was tested, and the survivor count (dose: 150.0 mg/kg/injection, schedule: Q01DX001 (ip), vehicle: saline) was 1 of 6 and the survivor count [6] was 0 of 6.

`Nc1nc2c(=O)[nH]cnc2n1C1OC(CO)C(O)C1O` (stereo unspecified) was tested, and the survivor count (dose: 40.0 mg/kg/injection, schedule: Q01DX001 (ip), vehicle: saline) was 2 of 4 and the survivor count [1] was 2 of 4.

`NNc1ccccc1Br` was tested, and the survivor count [5] was 0 of 6.

For `Fc1cccc2ccccc12`, the survivor count (dose: 400.0 mg/kg/injection, schedule: Q01DX009 (ip), vehicle: saline with Tween-80) was 2 of 6.

For `F[Si](F)(c1ccccc1)c1ccccc1`, the survivor count [6] was 4 of 6.

For `CCOC(=O)c1ccc(N=CNc2ccc(C(=O)OCC)cc2)cc1`, the survivor count (dose: 100.0 mg/kg/injection, schedule: Q01DX001 (ip), vehicle: other) was 6 of 6, the survivor count (dose: 200.0 mg/kg/injection, schedule: Q01DX001 (ip), vehicle: other) was 6 of 6 and the survivor count (dose: 400.0 mg/kg/injection, schedule: Q01DX001 (ip), vehicle: other) was 6 of 6.

In the case of `CN(C)CCCc1c2ccccc2nc2ccc(Cl)cc12`, the survivor count (dose: 50.0 mg/kg/injection, schedule: Q01DX009 (ip), vehicle: saline) is reported as 5 of 6, the survivor count [3] is reported as 3 of 6 and the survivor count [4] is reported as 0 of 6. The survivor count [5] was 0 of 6.

`CC(=O)NNC(=O)c1ccccn1` was tested, and the survivor count (dose: 256.0 mg/kg/injection, schedule: Q01DX009 (oral), vehicle: saline) was 4 of 10, the survivor count (dose: 512.0 mg/kg/injection, schedule: Q01DX001 (ip), vehicle: saline) was 2 of 10 and the survivor count (dose: 512.0 mg/kg/injection, schedule: Q01DX001 (oral), vehicle: saline) was 0 of 10. For the same molecule, the survivor count (dose: 512.0 mg/kg/injection, schedule: Q01DX009 (oral), vehicle: saline) was 0 of 10, the survivor count (dose: 512.0 mg/kg/injection, schedule: Q04DX003 (ip), vehicle: saline) was 0 of 10 and the survivor count (dose: 512.0 mg/kg/injection, schedule: Q08DX002 (ip), vehicle: saline) was 2 of 10. The survivor count (dose: 1024.0 mg/kg/injection, schedule: Q01DX001 (oral), vehicle: saline) was 0 of 10.

In the case of `[O]=[Sb]([OH])([OH])[c]1ccccc1`, the survivor count (dose: 200.0 mg/kg/injection, schedule: Q01DX009 (sc), vehicle: olive oil, sesame oil, peanut oil) is reported as 0 of 6, the survivor count (dose: 200.0 mg/kg/injection, schedule: Q04DX002 (ip), vehicle: saline with Tween-80) is reported as 3 of 3 and the survivor count (dose: 400.0 mg/kg/injection, schedule: Q04DX002 (ip), vehicle: saline with Tween-80) is reported as 0 of 3. For the same molecule, the survivor count (dose: 400.0 mg/kg/injection, schedule: Q04DX003 (sc), vehicle: olive oil, sesame oil, peanut oil) was 0 of 6.

In the case of `Nc1ccccc1SC(CC(=O)c1ccccc1)c1ccc([N+](=O)[O-])cc1` (stereo unspecified), the survivor count (dose: 200.0 mg/kg/injection, schedule: Q01DX005 (ip), vehicle: Klucel (hydroxypropylcellulose) (HPC)) is reported as 3 of 3.

`COc1ccccc1N=Nc1ccc(O)c(C(=O)O)c1` was tested, and the survivor count [7] was 1 of 6.

For `CCCCCCCc1cc2ccccc2c2c(N)nc(N)nc12`, the survivor count (dose: 200.0 mg/kg/injection, schedule: Q04DX003 (ip), vehicle: Klucel (hydroxypropylcellulose) (HPC)) was 0 of 6, the survivor count (dose: 400.0 mg/kg/injection, schedule: Q01DX001 (ip), vehicle: Klucel (hydroxypropylcellulose) (HPC)) was 1 of 6 and the survivor count [7] was 0 of 6.

In the case of `CCN(CC)CCC(=O)c1cccc2c1OC(C)(C)C2`, the survivor count [3] is reported as 4 of 6, the survivor count [4] is reported as 0 of 6 and the survivor count [5] is reported as 0 of 6.

With `O=C(C=C(C(F)(F)F)C(F)(F)F)c1cccc(S(=O)(=O)F)c1` the survivor count (dose: 25.0 mg/kg/injection, schedule: Q01DX009 (ip), vehicle: saline with Tween-80) was 2 of 6, the survivor count (dose: 50.0 mg/kg/injection, schedule: Q01DX009 (ip), vehicle: saline with Tween-80) was 2 of 6 and the survivor count (dose: 100.0 mg/kg/injection, schedule: Q01DX009 (ip), vehicle: saline with Tween-80) was 0 of 6.

In the case of `O=C1C=C(O)C(c2ccccc2)=CC1=O`, the survivor count (dose: 400.0 mg/kg/injection, schedule: Q01DX001 (ip), vehicle: water) is reported as 0 of 6.

`Cc1c(Cl)nc(Cl)nc1Cl` was tested, and the survivor count (dose: 300.0 mg/kg/injection, schedule: Q01DX015 (ip), vehicle: carboxymethylcellulose (CMC)) was 4 of 6.

With `COCC(O)C(OC)C(OC)C(C=O)NC(=O)N(CCCl)N=O` (stereo unspecified) the T/C (dose: 6.0 mg/kg/injection, schedule: Q01DX001 (ip), vehicle: saline with Tween-80) was 134 % of control, the T/C (dose: 9.0 mg/kg/injection, schedule: Q01DX001 (ip), vehicle: saline with Tween-80) was 140 % of control and the survivor count (dose: 168.0 mg/kg/injection, schedule: Q01DX001 (ip), vehicle: saline with Tween-80) was 10 of 10.

`CCOC(=O)N/N=C/c1ccccc1` was tested, and the T/C (dose: 100.0 mg/kg/injection, schedule: Q01DX001 (ip), vehicle: Klucel (hydroxypropylcellulose) (HPC)) was 141 % of control and the T/C [2] was 141 % of control.

For `COc1cccc(NC(=O)Oc2ccc(Cl)cc2Cl)c1`, the survivor count [8] was 3 of 3.

`NNC(=O)CNc1ccccc1Cl` was tested, and the survivor count [8] was 0 of 3.

For `C[CH2][Pb]([CH2]C)([CH2]C)[O]C(=O)C=C1CCCC1`, the survivor count (dose: 5.0 mg/kg/injection, schedule: Q01DX009 (ip), vehicle: saline with Tween-80) was 5 of 6, the survivor count (dose: 10.0 mg/kg/injection, schedule: Q01DX009 (ip), vehicle: saline with Tween-80) was 0 of 6 and the survivor count (dose: 100.0 mg/kg/injection, schedule: Q04DX003 (ip), vehicle: saline with Tween-80) was 0 of 6. For the same molecule, the survivor count (dose: 200.0 mg/kg/injection, schedule: Q04DX003 (ip), vehicle: saline with Tween-80) was 0 of 6 and the survivor count (dose: 400.0 mg/kg/injection, schedule: Q04DX003 (ip), vehicle: saline with Tween-80) was 0 of 6.
